The test addresses loop domain deletion mutant of MCL1 (UniProt Q07820). Put plainly: co-IP; anti-MCL1 antibody, MCL1 CRISPR HCT116 p53-/- cells transiently transfected with wild type or mutant MCL1; blots for CaM and ENO1.

Sequences of proteins named here, by UniProt entry; tags and fusion partners are left off. A change or cut given only in a name is not applied to a line headed by its entry.
UniProt Q07820: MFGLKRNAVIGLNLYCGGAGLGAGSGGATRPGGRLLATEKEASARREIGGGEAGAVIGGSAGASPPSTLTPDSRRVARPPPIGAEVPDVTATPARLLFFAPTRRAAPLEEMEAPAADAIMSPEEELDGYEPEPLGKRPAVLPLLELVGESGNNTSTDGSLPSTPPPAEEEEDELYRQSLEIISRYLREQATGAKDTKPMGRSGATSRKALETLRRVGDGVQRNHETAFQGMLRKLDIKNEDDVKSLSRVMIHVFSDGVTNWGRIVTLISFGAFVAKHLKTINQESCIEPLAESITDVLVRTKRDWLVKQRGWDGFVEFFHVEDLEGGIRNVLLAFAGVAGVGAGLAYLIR
UniProt P06733: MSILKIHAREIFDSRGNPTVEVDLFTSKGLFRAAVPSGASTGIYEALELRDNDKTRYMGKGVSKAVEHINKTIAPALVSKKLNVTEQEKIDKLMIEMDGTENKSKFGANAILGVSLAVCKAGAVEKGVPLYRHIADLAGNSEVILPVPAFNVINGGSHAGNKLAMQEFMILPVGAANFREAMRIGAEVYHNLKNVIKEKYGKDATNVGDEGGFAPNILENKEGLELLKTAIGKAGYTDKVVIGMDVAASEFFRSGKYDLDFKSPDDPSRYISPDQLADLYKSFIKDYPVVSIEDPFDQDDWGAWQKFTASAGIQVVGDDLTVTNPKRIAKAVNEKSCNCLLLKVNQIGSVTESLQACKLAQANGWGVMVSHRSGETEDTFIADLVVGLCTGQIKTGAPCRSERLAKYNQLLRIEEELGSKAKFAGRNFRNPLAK

No constants are given. Whether binding was seen depends on the method and setting. In cells and extracts the contact can be indirect.

Consider “alpha-enolase (from UniProt P06733 1-434) (enzyme)”, for which the binding result is “no binding”.
